According to patent publication US7189523B2, “Methods of identifying compounds that modulate IL-4 receptor-mediated IgE synthesis utilizing a B-cell associated protein” (Rigel Pharmaceuticals, Inc., priority 2002, dated 2007):
Some of these results come from one statement about several compounds together.

Test system: IL-4 induced germline ε transcription (ε promoter reporter) in naïve A5T4 cells
Experiment: Re-infection (DNA transfer) assay in naïve A5T4 reporter cells; also used for the functional profile of the mutants
Assay type: cell-based, human
Conditions: % change in reporter ratio calculated after subtracting 1.0 from the individual ratios
Procedure: The ability of peptide CL08wt (SEQ ID NO: 1) to inhibit germline ε transcription was confirmed in naïve cells. Briefly, Phoenix cells were transfected with a retroviral vector encoding a BFP-CL08wt peptide fusion as described in WO 99/58663 and WO 97/27213. Naïve A5T4 cells were infected with the resultant virions and grown for 3 days. The infected cells were stimulated with IL-4 (60 U/mL) and, after 3 days, the cells were assessed by FACS for BFP and GFP. […] The BFP fluorescence data corresponding to the BFP^+ and BFP^− populations are provided in Panel A. The GFP fluorescence data corresponding to the BFP^+ and BFP^− populations are presented in Panel B. The reporter ratio for this purpose is determined as the geometric mean of the GFP fluorescence of the BFP^− population divided by the geometric mean of the GFP fluorescence of the BFP^+ population. The reporter ratio for the CL08 in this re-infection assay was 1.39. […]
TABLE 2 depicts the amino acid sequences (the mutations are underlined) of the mutants tested and the measured reporter ratios when screening in the A5T4 reporter line.
Comparison of the interaction and functional profiles was performed by categorizing the mutants of CL08 based on the functional and interaction assays. […] The % increase or decrease in reporter ratio is calculated after subtracting 1.0 from the individual ratios. […]

| Sequence | functional category of the mutant compared to CL08wt |
| --- | --- |
| TGVHVAAQINRSIMHYISSP (peptide encoded by synthetic oligomer) [CL08EL, double alanine mutant of CL08wt] | N (Functionally neutral mutants have reporter ratios that fall within ±50% of that of the CL08wt (SEQ ID NO: 1) peptide) |
| TGVHVELQINRSIMAAISSP (peptide encoded by synthetic oligomer) [CL08HY, double alanine mutant of CL08wt] | N (Functionally neutral mutants have reporter ratios that fall within ±50% of that of the CL08wt (SEQ ID NO: 1) peptide) |
